Laboratory results: PubChem BioAssay AID504784 (Drosophila RNAi Screening Center, 2011)

Aim: 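Fly genes whose silencing alters how much lipid cells keep in droplets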 (primary screen)
Cell system: Drosophila Kc167 embryonic cells
Knock-down reagent: long dsRNA against Drosophila genes, about 250 ng dsRNA per well
Timing: 4 days
Conditions: cells fed 400 µM oleic acid bound to BSA
Detection: 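Cells imaged and segmented; ratio of lipid droplet area to nuclear area, log-transformed, then normalised as a B-score over the screen; higher means more stored lipid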
Scale: droplet/nuclear area B-score: higher = more stored lipid (overstorage)
The deposit covers about 17,000 reagents; this is a random part of those with a known target gene and a result. 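Each column is one replicate's B-score; the combined score over replicates was not deposited, so single values may mislead.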 No sequences are given here.

Target gene,DRSC id,"droplet/nuclear area B-score, replicate 1","droplet/nuclear area B-score, replicate 2","droplet/nuclear area B-score, replicate 3"
TTLL15,DRSC15543,-0.133,-2.03,
Ir56c,DRSC06544,1.89,-0.108,
Rsph4a,DRSC04338,1.93,1.87,
CG10184,DRSC14204,-0.503,-0.323,
dpr17,DRSC12885,-0.314,-0.0379,
dpr17,DRSC14957,4.72,3.24,
dpr17,DRSC14958,1.4,-0.782,
Slu7,DRSC14729,1.13,-0.236,
EndoB,DRSC07345,-0.501,0.71,
CG7768,DRSC10914,0.76,-0.325,-0.103
CG3701 (retired record),DRSC04408,-0.0584,-1.73,
CG3701 (retired record),DRSC04409,-0.0736,0.15,
CG13630,DRSC14631,-2.85,0.462,
Pde11,DRSC02028,-0.00721,0.417,
Pde11,DRSC02460,0.0792,-1.87,
pHCl-1,DRSC09991,0.401,0.226,
pHCl-1,DRSC10589,-0.446,-1.23,
cyst,DRSC02023,-3.44,-0.678,
CG5334,DRSC19941,-0.0362,-0.148,
CG12929,DRSC06242,-1.53,0.708,
Hakai,DRSC02031,1.19,0.352,
CG42748,DRSC03712,-1.15,-0.034,
CG42748,DRSC03713,-0.927,1.11,
CG42748,DRSC03734,-0.0295,1.15,
CG13126,DRSC02222,0.619,-0.836,
Rassf,DRSC15612,-0.546,-0.544,
mthl1,DRSC19905,-1.94,-0.588,
apn,DRSC15124,-0.803,0.27,
CG9760,DRSC11101,-0.0199,0.155,
CG9582,DRSC03267,-0.244,-0.696,
CG11406,DRSC04010,-0.644,-0.0564,
CG11406,DRSC04108,-1.29,-0.0116,
Jhbp3,DRSC12247,0.00614,1.07,
CG10226,DRSC09715,1.32,1.22,
tyn,DRSC20652,-1.16,-1.68,
Desat1,DRSC16668,-2.17,1.38,
rho-4,DRSC19761,-0.198,0.0571,0.476
rho-4,DRSC19762,-0.204,-0.358,-0.814
CG15649,DRSC04240,-0.904,-1.53,
CG33461,DRSC22892,0.0567,1.51,
Cht10,DRSC03766,-0.531,-2.21,
Cht10,DRSC03767,-0.0482,-1.17,
Cht10,DRSC03768,0.333,-1.23,
ND-PDSW,DRSC00715,2.1,0.117,
CG5151,DRSC10487,4.64,6.71,
CG5151,DRSC23220,-0.006,-0.956,
CG31245,DRSC15498,0.0907,0.43,
MED30,DRSC08516,3.27,,
MED30,DRSC23135,-0.523,1.68,
LamC,DRSC07453,0.299,-0.814,
CG11986,DRSC14461,2.29,1.27,
CG31788,DRSC01630,1.27,0.209,
a6,DRSC18733,1.55,0.674,
Vang,DRSC07570,-0.167,0.12,
Mgtor,DRSC05958,0.314,0.169,
CG14692,DRSC14915,-0.112,-0.147,

3 entries from above, reformatted:
CG10184 [DRSC14204]
- droplet/nuclear area B-score, replicate 1: -0.503
- droplet/nuclear area B-score, replicate 2: -0.323

dpr17 [DRSC12885]
- droplet/nuclear area B-score, replicate 1: -0.314
- droplet/nuclear area B-score, replicate 2: -0.0379

dpr17 [DRSC14957]
- droplet/nuclear area B-score, replicate 1: 4.72
- droplet/nuclear area B-score, replicate 2: 3.24
